# Source: PubChem BioAssay AID248 (DTP/NCI, 2004)
# The list does not hold the whole screen: it gathers some chemical classes. Other doses and runs of a compound may be missing. T/C: endpoint of the treated group in % of that of the vehicle group. For survival time, the PubChem record calls one and a half times the control and up active, and a quarter to a half above the control has no call in these data; cut-offs in other NCI protocols can differ. Schedules are NCI's codes, taken here to give the interval after Q, in days (D) or hours (H), and the number of doses after X. Some T/C values are followed by the survivors on the day toxicity was checked, most often the fifth; without a count or a note in brackets, all were alive then. Some doses were run more than once; the values are given in rising order. Some schedule codes hold Z or #, which are not explained here.
# System: L1210 leukemia ip in BDF1 mice, survival T/C
# Assay: NCI In Vivo Anticancer Drug Screen. Data for tumor model L1210 Leukemia (intraperitoneal) in B6D2F1 (BDF1) mice
# Conditions: T/C endpoint: mean survival time, higher T/C = longer survival
smiles,measurement,setting,value
NC(=O)c1[nH]cnc1/N=N\N(CCCl)CCCl,T/C,"dose: 25.0 mg/kg/injection, schedule: Q08DX024 (ip), vehicle: carboxymethylcellulose (CMC)",286 % of control
same,T/C,"dose: 25.0 mg/kg/injection, schedule: Q## X005 (ip), vehicle: carboxymethylcellulose (CMC)",122 % of control
same,T/C,"dose: 25.0 mg/kg/injection, schedule: Q#A X034 (ip), vehicle: carboxymethylcellulose (CMC)",136 % of control
same,T/C,"dose: 25.0 mg/kg/injection, schedule: Q#A X Z (ip), vehicle: carboxymethylcellulose (CMC)",190 % of control
same,T/C,"dose: 27.0 mg/kg/injection, schedule: Q06HX008 (ip), vehicle: carboxymethylcellulose (CMC)",161 % of control
same,T/C,"dose: 30.0 mg/kg/injection, schedule: Q01DX001 (ip), vehicle: carboxymethylcellulose (CMC)",121 % of control
same,T/C,"dose: 30.0 mg/kg/injection, schedule: Q03DX Z (ip), vehicle: carboxymethylcellulose (CMC)",205 and 232 % of control
same,T/C,"dose: 30.0 mg/kg/injection, schedule: Q07DX Z (ip), vehicle: carboxymethylcellulose (CMC)",136 % of control
same,T/C,"dose: 33.0 mg/kg/injection, schedule: Q01DX006 (iv), vehicle: carboxymethylcellulose (CMC)",164 % of control
same,T/C,"dose: 33.0 mg/kg/injection, schedule: Q01DX Z (im), vehicle: carboxymethylcellulose (CMC)",156 % of control
same,T/C,"dose: 33.0 mg/kg/injection, schedule: Q01DX Z (ip), vehicle: carboxymethylcellulose (CMC)",246 % of control
same,T/C,"dose: 33.0 mg/kg/injection, schedule: Q01DX Z (oral), vehicle: carboxymethylcellulose (CMC)",180 % of control
same,T/C,"dose: 33.0 mg/kg/injection, schedule: Q01DX Z (sc), vehicle: carboxymethylcellulose (CMC)",144 % of control
same,T/C,"dose: 37.5 mg/kg/injection, schedule: Q01DX005 (oral), vehicle: carboxymethylcellulose (CMC)",115 % of control
same,T/C,"dose: 37.5 mg/kg/injection, schedule: Q01DX009 (oral), vehicle: carboxymethylcellulose (CMC)",131 % of control
same,T/C,"dose: 37.5 mg/kg/injection, schedule: Q01DX017 (oral), vehicle: steroid suspending solution",96 and 108 % of control [7 of 8 alive]
same,T/C,"dose: 37.5 mg/kg/injection, schedule: Q03HX008 (oral), vehicle: carboxymethylcellulose (CMC)",210 % of control
same,T/C,"dose: 37.5 mg/kg/injection, schedule: Q03HX016 (ip), vehicle: carboxymethylcellulose (CMC)",478 % of control
same,T/C,"dose: 37.5 mg/kg/injection, schedule: Q06HX012 (oral), vehicle: steroid suspending solution",122 % of control
same,T/C,"dose: 37.5 mg/kg/injection, schedule: Q06HX020 (oral), vehicle: steroid suspending solution",105 % of control
same,T/C,"dose: 37.5 mg/kg/injection, schedule: Q06HX068 (oral), vehicle: steroid suspending solution",185 % of control
same,T/C,"dose: 37.5 mg/kg/injection, schedule: Q## X009 (oral), vehicle: carboxymethylcellulose (CMC)",121 % of control
same,T/C,"dose: 37.5 mg/kg/injection, schedule: Q#A X Z (ip), vehicle: carboxymethylcellulose (CMC)",180 % of control
same,T/C,"dose: 39.0 mg/kg/injection, schedule: Q01DX009 (ip), vehicle: carboxymethylcellulose (CMC)",227 % of control
same,T/C,"dose: 39.0 mg/kg/injection, schedule: Q01DX017 (ip), vehicle: carboxymethylcellulose (CMC)",180 % of control
same,T/C,"dose: 39.0 mg/kg/injection, schedule: Q01DX Z (ip), vehicle: carboxymethylcellulose (CMC)",175 and 305 % of control
same,T/C,"dose: 41.5 mg/kg/injection, schedule: Q04DX003 (ip), vehicle: other",151 and 162 % of control
same,T/C,"dose: 43.5 mg/kg/injection, schedule: Q01DX009 (ip), vehicle: other","196, 201, 209 % of control"
same,T/C,"dose: 44.0 mg/kg/injection, schedule: Q01DX001 (ip), vehicle: carboxymethylcellulose (CMC)",130 % of control
same,T/C,"dose: 44.0 mg/kg/injection, schedule: Q03DX Z (ip), vehicle: carboxymethylcellulose (CMC)",325 % of control
same,T/C,"dose: 44.0 mg/kg/injection, schedule: Q07DX Z (ip), vehicle: carboxymethylcellulose (CMC)",151 % of control
same,T/C,"dose: 45.0 mg/kg/injection, schedule: Q06HX008 (ip), vehicle: carboxymethylcellulose (CMC)",232 % of control
same,T/C,"dose: 46.1 mg/kg/injection, schedule: Q01DX001 (ip), vehicle: steroid suspending solution",135 % of control
same,T/C,"dose: 50.0 mg/kg/injection, schedule: Q01DX001 (ip), vehicle: carboxymethylcellulose (CMC)",134 % of control
same,T/C,"dose: 50.0 mg/kg/injection, schedule: Q01DX001 (ip), vehicle: saline",106 and 116 % of control
same,T/C,"dose: 50.0 mg/kg/injection, schedule: Q01DX001 (ip), vehicle: steroid suspending solution, evaluated on day 6",194 % of control
same,T/C,"dose: 50.0 mg/kg/injection, schedule: Q01DX001 (ip), vehicle: steroid suspending solution, evaluated on day 28",130 % of control
same,T/C,"dose: 50.0 mg/kg/injection, schedule: Q01DX001 (ip), vehicle: steroid suspending solution, evaluated on day 60",194 % of control
same,T/C,"dose: 50.0 mg/kg/injection, schedule: Q01DX005 (ip), vehicle: carboxymethylcellulose (CMC)",139 and 182 % of control
same,T/C,"dose: 50.0 mg/kg/injection, schedule: Q01DX006 (iv), vehicle: carboxymethylcellulose (CMC)",185 % of control [5 of 6 alive]
same,T/C,"dose: 50.0 mg/kg/injection, schedule: Q01DX009 (ip), vehicle: carboxymethylcellulose (CMC)",206 % of control
same,T/C,"dose: 50.0 mg/kg/injection, schedule: Q01DX009 (ip), vehicle: water",223 % of control
same,T/C,"dose: 50.0 mg/kg/injection, schedule: Q01DX009 (oral), vehicle: carboxymethylcellulose (CMC)",192 % of control
same,T/C,"dose: 50.0 mg/kg/injection, schedule: Q01DX017 (ip), vehicle: carboxymethylcellulose (CMC)","267, 273, 280 % of control"
same,T/C,"dose: 50.0 mg/kg/injection, schedule: Q01DX Z (im), vehicle: carboxymethylcellulose (CMC)",158 % of control
same,T/C,"dose: 50.0 mg/kg/injection, schedule: Q01DX Z (ip), vehicle: carboxymethylcellulose (CMC)","285, 312, 318 % of control"
same,T/C,"dose: 50.0 mg/kg/injection, schedule: Q01DX Z (oral), vehicle: carboxymethylcellulose (CMC)",187 and 250 % of control
same,T/C,"dose: 50.0 mg/kg/injection, schedule: Q01DX Z (sc), vehicle: carboxymethylcellulose (CMC)",160 % of control
same,T/C,"dose: 50.0 mg/kg/injection, schedule: Q02DX009 (ip), vehicle: carboxymethylcellulose (CMC)","213, 251, 259 % of control"
same,T/C,"dose: 50.0 mg/kg/injection, schedule: Q03HX003 (ip), vehicle: carboxymethylcellulose (CMC)",137 % of control
same,T/C,"dose: 50.0 mg/kg/injection, schedule: Q03HX008 (ip), vehicle: carboxymethylcellulose (CMC)",262 % of control
same,T/C,"dose: 50.0 mg/kg/injection, schedule: Q03HX008 (ip), vehicle: water",685 % of control
same,T/C,"dose: 50.0 mg/kg/injection, schedule: Q04DX002 (ip), vehicle: water",122 % of control
same,T/C,"dose: 50.0 mg/kg/injection, schedule: Q04DX003 (ip), vehicle: carboxymethylcellulose (CMC)",152 % of control
same,T/C,"dose: 50.0 mg/kg/injection, schedule: Q04DX005 (ip), vehicle: carboxymethylcellulose (CMC)","117, 177, 190 % of control"
same,T/C,"dose: 50.0 mg/kg/injection, schedule: Q08DX002 (ip), vehicle: carboxymethylcellulose (CMC)",132 % of control
same,T/C,"dose: 50.0 mg/kg/injection, schedule: Q08DX003 (ip), vehicle: carboxymethylcellulose (CMC)",126 % of control
same,T/C,"dose: 50.0 mg/kg/injection, schedule: Q08DX024 (ip), vehicle: carboxymethylcellulose (CMC)",348 % of control
same,T/C,"dose: 50.0 mg/kg/injection, schedule: Q## X003 (ip), vehicle: carboxymethylcellulose (CMC)",118 % of control
same,T/C,"dose: 50.0 mg/kg/injection, schedule: Q## X005 (ip), vehicle: carboxymethylcellulose (CMC)",175 % of control
same,T/C,"dose: 50.0 mg/kg/injection, schedule: Q#A X034 (ip), vehicle: carboxymethylcellulose (CMC)",318 % of control
same,T/C,"dose: 53.0 mg/kg/injection, schedule: Q01DX001 (ip), vehicle: other",121 % of control
